First the molecules themselves.
T1: ECT2^WT-mCherry (Arabidopsis thaliana) (UniProt Q9LJE5)
T1 sequence: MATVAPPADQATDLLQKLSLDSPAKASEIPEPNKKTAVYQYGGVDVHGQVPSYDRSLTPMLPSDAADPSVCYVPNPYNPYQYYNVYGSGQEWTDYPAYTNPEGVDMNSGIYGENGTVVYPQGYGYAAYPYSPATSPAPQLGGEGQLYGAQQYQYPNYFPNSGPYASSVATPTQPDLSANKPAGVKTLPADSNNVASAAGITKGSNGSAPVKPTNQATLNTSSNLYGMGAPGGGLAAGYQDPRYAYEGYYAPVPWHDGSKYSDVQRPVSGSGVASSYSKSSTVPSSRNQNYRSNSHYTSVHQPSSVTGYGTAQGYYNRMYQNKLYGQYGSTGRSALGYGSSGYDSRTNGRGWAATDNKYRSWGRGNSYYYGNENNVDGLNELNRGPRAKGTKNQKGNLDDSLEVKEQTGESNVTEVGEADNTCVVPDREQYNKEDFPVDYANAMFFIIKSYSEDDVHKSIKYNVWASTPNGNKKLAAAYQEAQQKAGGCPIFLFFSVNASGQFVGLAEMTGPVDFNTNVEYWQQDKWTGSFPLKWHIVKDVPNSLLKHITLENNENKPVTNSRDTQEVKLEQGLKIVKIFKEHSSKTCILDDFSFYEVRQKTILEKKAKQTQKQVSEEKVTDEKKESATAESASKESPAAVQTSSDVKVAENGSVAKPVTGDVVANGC

By UniProt entry, the sequences of proteins in these tests, tags left out. Where a name states a change or a piece, a line headed by the entry shows the natural chain unless it says otherwise.
UniProt Q9LP53: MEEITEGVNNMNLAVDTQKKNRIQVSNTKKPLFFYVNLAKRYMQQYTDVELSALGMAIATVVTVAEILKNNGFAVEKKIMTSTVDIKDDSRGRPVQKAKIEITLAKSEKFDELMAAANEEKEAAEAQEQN
UniProt A0A1P8AM56: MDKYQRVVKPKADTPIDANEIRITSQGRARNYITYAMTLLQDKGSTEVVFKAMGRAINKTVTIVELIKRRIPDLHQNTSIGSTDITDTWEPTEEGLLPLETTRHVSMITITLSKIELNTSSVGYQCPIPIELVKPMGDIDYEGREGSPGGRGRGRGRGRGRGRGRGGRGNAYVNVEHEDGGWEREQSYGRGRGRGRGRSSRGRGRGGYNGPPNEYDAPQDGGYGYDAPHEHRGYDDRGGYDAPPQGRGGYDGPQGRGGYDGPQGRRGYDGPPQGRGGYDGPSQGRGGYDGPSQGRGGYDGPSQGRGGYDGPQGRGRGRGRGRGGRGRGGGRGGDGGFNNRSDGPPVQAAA
UniProt F4HWS5: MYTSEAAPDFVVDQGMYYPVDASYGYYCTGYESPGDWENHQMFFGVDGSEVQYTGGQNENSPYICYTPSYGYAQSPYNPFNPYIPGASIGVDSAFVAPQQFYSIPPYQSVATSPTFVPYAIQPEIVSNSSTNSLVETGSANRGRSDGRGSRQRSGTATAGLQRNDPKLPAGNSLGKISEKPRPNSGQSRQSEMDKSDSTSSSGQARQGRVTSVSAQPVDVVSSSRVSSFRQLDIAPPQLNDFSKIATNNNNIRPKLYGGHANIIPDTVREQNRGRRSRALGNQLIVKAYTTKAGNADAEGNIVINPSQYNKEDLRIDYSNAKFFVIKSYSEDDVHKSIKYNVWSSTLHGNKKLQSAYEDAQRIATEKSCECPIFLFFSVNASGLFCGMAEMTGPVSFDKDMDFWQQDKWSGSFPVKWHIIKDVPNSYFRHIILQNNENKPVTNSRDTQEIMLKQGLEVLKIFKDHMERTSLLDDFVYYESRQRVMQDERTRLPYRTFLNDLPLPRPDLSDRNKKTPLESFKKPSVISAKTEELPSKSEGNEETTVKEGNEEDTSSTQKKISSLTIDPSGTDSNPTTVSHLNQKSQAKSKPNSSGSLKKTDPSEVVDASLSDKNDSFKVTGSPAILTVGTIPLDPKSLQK

B1: ECT3 (protein, UniProt F4K1Z0 1-495)
chain: MANPDHVSDVLHNLSIDPTTKALAPDSETKLQGAYGGNGNDFLLNDELVEATKIGKPSLLSKDGGVTKDKGSNLKKLGYQSAAYNAKGSYGKGAYAYGYYPPAYQYPRHGYTGSYASGKTNLQYQYLTQQGRSAGNGQSYGGYMDNIYSNYGMCGPYTNGYGYGSYGYDSWKYMPNWYAVNNTYKPRNGYHGYGKENIEGLNEMNRGPRAKGFNSQDGSKVMAVSLKEQRVTETEKLSEDVSLLDPKDYNKIDFPETYTEAKFYVIKSYSEDDIHKSIKYSVWSSTPNGNKKLDASYNEAKQKSDGCPVFLLFSVNTSGQFVGLAEMVGPVDFNKTVEYWQQDKWIGCFPVKWHFVKDIPNSSLRHITLENNENKPVTNSRDTQEVKLEQGIKVIKIFKDHASKTCILDDFEFYENRQKIIQERKSKHLQIKKQTLVANADKGVMSKINLVKPQESTTASEDAAALGVAAEVTKESKVVKETELPVEKNAVATAC
B2: ECT4 (protein, UniProt A0A1P8AS03 1-605)
chain: MSTVAPPADQAADVLKKLSLDSKSRTLEIPEPTKKTGVYQYGAMDSNGQVPSFDRSLSPMLPSDALDPSVFYVPNVYQQPYYYGYGSDYTGYTNSESVDMTSGAYGENASLVYPQGYGYAAFPYSPATSPAPQLGGDGQLYGAQQYQYPFPLTASSGPFASSVPASTQSKLSTNKAANSASAGIPKGMNGSAPVKPLNQSALYGNSALGGGLAAGYQDPRYSYDGFYTPVSWHDGSNFSDVQRSVSGSGVASSYSKANNNVPATRNQNSSSNSHYTSMYQPASMTGYAAQGYYDRVSPNKSYGQYGSTVRSGMGYGSSGYGSRTNERGWLNTDNKYRSRGRGNSYFYGNENIDGLNELNRGPRAKGTKATEEVSSEEVKKQTFDESNTEETVTCVLPDREECNRDDFPVEYKDAKFFIIKSYSEDDVHKSIKYNVWASTPNGNKKLDAAYQEAQQKSSGCPVFLFFSVNASGQFIGLAEMKGPVDFNKNIEYWQQDKWTGSFPLKWHILKDVPNSLLKHITLEYNENKPVTNSRDTQEVKLEQGLKVVKIFKEHNSKTCILDDFSFYEARQKTILEKKAKQQQSQKQVWEGKTNDEKPGTVDSTM
B3: ECT1 (protein, UniProt Q3MK94 1-428)
chain: MAGAASSDRLVTSFPLLDTADLFQDLSLGSDANEVPMNFTKGSFQHPYGHAPYGASSHGSERRPNMNAGNLLNGGDSIGSYPWGYIPANYPSGGYPDPRFGYDRNSNHSSFSHLMNPHSSQEVPSFDQLGYNDHLYSNHGLYGLYGNVIDSGHAYGTFGYDSWKLGRGWYPVDGYRKTRSFNHGRGYSDEKADRLNELCRGPRSSDFKNPQVLNSSMLDAMKQDVSAVDLQRYNGENFPESFVKAKFFVIKSYSEDDVHNCIKYGAWSSTPTGNKKLNAAYYEAKENSQECPVYLLFSVNASGQFVGLAEMVGPVDFNKTMEYWQQDKWIGCFPVKWHIIKDIPNSLLRHITLANNENKPVTNSRDTQEVNLEHGTKIIKIFKEYMSKTCILDDYKFYETRQKIIRDKKIKQKKQALDGASGETINLS
B4: ECT2 (protein, UniProt Q9LJE5 1-667)
chain: T1 sequence

No constants are given. Whether binding was seen depends on the method and setting. In cells and extracts the contact can be indirect. A yes stands for co-enrichment or nearness to the bait. Other partners may have been found.

Experimental findings from paper PMC11649824 are described below.

One assay concerns the target T1, ECT2^WT-mCherry (Arabidopsis thaliana). The assay is described as follows: affinity purification with mass spectrometry; comparative IP-MS of ECT2-mCherry variants (RFP-trap) from stable transgenic lines in the te234 background; immunopurifications in the presence of RNaseA; biological triplicates.
Take ALBA1 (from UniProt Q9LP53): the binding result was “binds”.

Turning to ALBA5, the binding entry was “binds”.

ALBA2: the binding entry is on record as “binds”.

With ALBA4 (from UniProt A0A1P8AM56), the binding result is given as “binds”.

In another assay the target is ALBA4-GFP (Arabidopsis thaliana). The assay can be described thus: affinity purification with mass spectrometry; comparative IP-MS of ALBA4-GFP against free GFP; GFP-Trap beads, total lysates of 7-day-old seedlings, IP buffer 50 mM Tris-HCl pH 7.5, 150 mM NaCl, 10% glycerol, 0.1% Triton-X100, 2.5 h at 4 °C; biological triplicates.
Regarding ECT7 (from UniProt F4HWS5), the binding entry is recorded as “binds”.

In the case of B1, the binding entry is “binds”.

With B2, the binding result is recorded as “binds”.

For the molecule B3, the binding entry is on record as “binds”.

For the molecule B4, the binding entry is given as “binds”.
